The record followed here is the supplement of paper PMC7125110.

The chains are these.
B1: glmS ribozyme (parent)
chain: AUAAAAGCGCCAGAACUACAGAAAUGUAGUUGACGAGGAGGAGGUUUAUCGAAUUUUCGGCGGAUGCCUCCAAA

± gives the standard error. Many entries were measured with a wide error.

Variants of B1 are the subject of the first data set. As to the kind of experiment: self-cleavage kobs at 640 uM GlcN6P; higher = faster cleavage; RNA array. The conditions noted are these: with glucosamine-6-phosphate. In a few lines:
(§1)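 On sequenced MiSeq chips, barcoded ribozyme variants were made in situ by E. coli RNA polymerase and followed at 37 °C through a hybridised Cy3 probe. Glucosamine-6-phosphate was flowed in at 40 μM to 10 mM in HEPES/KCl/Mg(OAc)2 buffer. Exponential fits to normalised per-tile medians gave kobs, and weighted Michaelis–Menten fits gave kcat and KM.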
For the variant AUAAAAGCGCCAGAACUACAGAAAUGUAGUUGACGAGGAGCGGGUUUAUCGAAUUUUCGGCGGAUGCCUACAAA [G41C A42G C70A], the “self-cleavage kobs at 640 uM GlcN6P” value is 4.49e-05 ± 2.7e-05 s⁻¹.
On the same count and under the same terms, with AUAAAAGCGCCAGAACUACAGAAAUGUAGUUGACGAGGAGGAGGUUUAUCGUAUUUUCGGCGGAUGCAUUCAAA [A52U C68A C70U] the figure was 3.27e-05 ± 2.2e-05 s⁻¹; with AUAAAAGCGCCAGAACUACAGAAAUGUAGUUGACGAGGCGGAGAUUUAUCGAAUUUUCGGCGGAUGCCUCCAAA [A39C G44A], 1.55e-05 ± 1.5e-05 s⁻¹.
As for AUAAAAGCGCCAGAACUACAGAAAUGUAGUUGACGAUGGGGAGGUUUAUGGAAUUUUCGGCGGAUGCCUCCAAA [G37U A39G C50G], the “self-cleavage kobs at 640 uM GlcN6P” value was 3.83e-05 ± 2.8e-05 s⁻¹.
For the variant AUAAAAGCGCCAGAACUACAGAAAUGUAGUUGACGAGGAGGAGGUUUGUCGAAUUUUUUGGGGAUGUCUCCAAA [A48G C58U G59U C61G C67U], the “self-cleavage kobs at 640 uM GlcN6P” value came out at 6.08e-05 ± 3.2e-05 s⁻¹.
The same measure, in the same setting: under AUAAAAGCGCCAGAACUACAGAAAUGUAGUUGACGAGGAGGAGGUUUAUCGAAUUUUCAGCGGAUGCCGCCAAA [G59A U69G] stands 2.58e-05 ± 1.3e-05 s⁻¹; under AUAAAAGCGCCAGAACUACAGAAAUGUAGUUGACGAGGAUGAGGUUUAUCGUAUUUUCGGCGGAUGCCUCCAAA [G40U A52U], 2.92e-05 ± 1.6e-05 s⁻¹.
For AUAAAAGCGCCAGAACUACAGAAAUGUAGUUGACGAGAAGGAGGUUUAUCGAAUUUUCGGCGGAUGACACCAAA [G38A C67A U69A], the “self-cleavage kobs at 640 uM GlcN6P” value stood at 2.49e-05 ± 2e-05 s⁻¹.
The same measure, in the same setting: under AUAAAAGCGCCAGAACUACAGAAAUGUAGUUGACGAGGAGGAGGUUUAUCGAAUUUUCGGCGAAUGCAUCCAAA [G63A C68A] stands 1.79e-05 ± 1.8e-05 s⁻¹.
AUAAAAGCGCCAGAACUACAGAAAUGUAGUUGACGAGGAGGAGGUUUAUCGAAUUUUUGGCGGAUGCUUCCAAA [C58U C68U]: the “self-cleavage kobs at 640 uM GlcN6P” value is 2.02e-05 ± 1.2e-05 s⁻¹.
With AUAAAAGCGCCAGAACUACAGAAAUGUAGUUGACGAGGAGGAGGUUUAUUGAAUUUUCGGCGGAUUGCUCCAAA [C50U G66U C67G], the “self-cleavage kobs at 640 uM GlcN6P” value stood at 2.42e-05 ± 2.1e-05 s⁻¹.
Still for that read-out and setting: under AUAAAAGCGCCAGAACUACAGAAAUGUAGUUGACGAGGAGGAGGUUUAGCGAAUUUUCGGAGGAUGCCUCCAAA [U49G C61A] stands 1.72e-05 ± 1.4e-05 s⁻¹; under AUAAAAGCGCCAGAACUACAGAAAUGUAGUUGACGAGGAGGAGGUUUAUCGAAUUUGCGGCGGAUGUCUCCAAA [U57G C67U], 2.72e-05 ± 1.8e-05 s⁻¹; under AUAAAAGCGCCAGAACUACAGAAAUGUAGUUGACGAGGAGGAGGUUUAUAGAUUUUUCGGCGGAUGUGUCCAAA [C50A A53U C67U C68G], 3.99e-05 ± 3.3e-05 s⁻¹.
As to AUAAAAGCGCCAGAACUACAGAAAUGUAGUUGACGAGGAGGGGGUUUAUCGAAUUUUCGGCGGUUGCCUCCAAA [A42G A64U], the “self-cleavage kobs at 640 uM GlcN6P” value was 3.24e-05 ± 1.7e-05 s⁻¹.
In the case of AUAAAAGCGCCAGAACUACAGAAAUGUAGUUGACGAGGAGGAGGUUUAUCGAAUUGUAGGCGGAUGCCUCAAAA [U56G C58A C71A], the “self-cleavage kobs at 640 uM GlcN6P” value was 2.66e-05 ± 2e-05 s⁻¹.
Regarding AUAAAAGCGCCAGAACUACAGAAAUGUAGUUGACGAGGAGGAGGUUUAUCGAAUUUUUGGCGGAUGACUCCAAA [C58U C67A], the “self-cleavage kobs at 640 uM GlcN6P” value was determined as 2.32e-05 ± 1.6e-05 s⁻¹.
For AUAAAAGCGCCAGAACUACAGAAAUGUAGUUGACGAGGAGGAGGUUUAUCUAUUUUUCGGCGGAUGUCUCCAAA [G51U A53U C67U], the “self-cleavage kobs at 640 uM GlcN6P” value turned out to be 0.00014 ± 8.3e-05 s⁻¹.
With AUAAAAGCGCCAGAACUACAGAAAUGUAGUUGACGACGAGGAGGUUUAUGGAAGUUUCGGCGUUUGCCUCCAAA [G37C C50G U54G G63U A64U], the “self-cleavage kobs at 640 uM GlcN6P” value is 4.83e-05 ± 3.4e-05 s⁻¹.
The same measure, in the same setting: with AUAAAAGCGCCAGAACUACAGAAAUGUAGUUGACGAGGAGGAGGUUUAUCGAAUUGUUGGCGGAUGCCUCCAAA [U56G C58U] the figure was 1.61e-05 ± 9.6e-06 s⁻¹; with AUAAAAGCGCCAGAACUACAGAAAUGUAGUUGACGAGGAGGAGUUUUAUCGAAUUUUCGGCGGAUGCCUCUAAA [G44U C71U], 1.26e-05 ± 9.2e-06 s⁻¹.
On the same count and under the same terms, under AUAAAAGCGCCAGAACUACAGAAAUGUAGUUGACGAGGAGGAGGUUUAUCGAAUUUCCGGCGGAUGCCUACAAA [U57C C70A] stands 3e-05 ± 1.7e-05 s⁻¹; under AUAAAAGCGCCAGAACUACAGAAAUGUAGUUGACGAGGAGGAGGUUUAUCGAAUUUUAGGCGGAUGCGUCAAAA [C58A C68G C71A], 5.04e-05 ± 2.6e-05 s⁻¹.
Same read-out and setting: with AUAAAAGCGCCAGAACUACAGAAAUGUAGUUGACGAGGAGGAGGUUUAUCGAAUUUUCGGCAGAUGCCACCAAA [G62A U69A] the figure was 2.77e-05 ± 1.7e-05 s⁻¹; with AUAAAAGCGCCAGAACUACAGAAAUGUAGUUGACGAGGAGGAGGUUUAUCGUAUUUUCGGCGGAUGUUUCCAAA [A52U C67U C68U], 4.45e-05 ± 3.8e-05 s⁻¹; with AUAAAAGCGCCAGAACUACAGAAAUGUAGUUGACGAGGAGGAGGAUUAUCGAAGUUUCGGCGGAUGCGUCCAAA [U45A U54G C68G], 4.74e-05 ± 2.9e-05 s⁻¹.
As to AUAAAAGCGCCAGAACUACAGAAAUGUAGUUGACGAGGAGGAGGUUUAUCGGAUUUUCGGCGGAUGCAUCCAAA [A52G C68A], the “self-cleavage kobs at 640 uM GlcN6P” value came out at 2.84e-05 ± 1.6e-05 s⁻¹.
As to AUAAAAGCGCCAGAACUACAGAAAUGUAGUUGACGAGGAGGAGGUUUAUCGAAUUUUGGGCGGAUCGCUUCAAA [C58G G66C C67G C70U], the “self-cleavage kobs at 640 uM GlcN6P” value is 2.68e-05 ± 2.3e-05 s⁻¹.

A further data set covers variants of B1. Description: self-cleavage kobs at 2500 uM GlcN6P; higher = faster cleavage; RNA array. The conditions noted are these: with glucosamine-6-phosphate. A digest of the protocol:
as §1
On to AUAAAAGCGCCAGAACUACAGAAAUGUAGUUGACGAGGAGGAGGUUUAUCGAAUUUUCAGCGGAUGCCGCCAAA [G59A U69G], for which the “self-cleavage kobs at 2500 uM GlcN6P” value was 2.7e-05 ± 1.6e-05 s⁻¹.
As for AUAAAAGCGCCAGAACUACAGAAAUGUAGUUGACGAGGAGGAGGUUUAUCGAAUUUUCGGCGAAUGCAUCCAAA [G63A C68A], the “self-cleavage kobs at 2500 uM GlcN6P” value is 2.61e-05 ± 2.2e-05 s⁻¹.
As to AUAAAAGCGCCAGAACUACAGAAAUGUAGUUGACGAGGAGGAGGUUUAUCGAAUUUUUGGCGGAUGACUCCAAA [C58U C67A], the “self-cleavage kobs at 2500 uM GlcN6P” value turned out to be 1.87e-05 ± 1.2e-05 s⁻¹.
For AUAAAAGCGCCAGAACUACAGAAAUGUAGUUGACGAGGAGGAGGUUUAUCGAAUUUUCGGCAGAUGCCACCAAA [G62A U69A], the “self-cleavage kobs at 2500 uM GlcN6P” value was determined as 3.99e-05 ± 2.3e-05 s⁻¹.
On the same count and under the same terms, with AUAAAAGCGCCAGAACUACAGAAAUGUAGUUGACGAGGAGGAGGUUUAUCGUAUUUUCGGCGGAUGUUUCCAAA [A52U C67U C68U] the figure was 3.06e-05 ± 2.2e-05 s⁻¹.

In a further data set the parent is B1. As to the kind of experiment: self-cleavage kobs at 10000 uM GlcN6P; higher = faster cleavage; RNA array. The conditions noted are these: with glucosamine-6-phosphate. In a few lines: as §1
As for AUAAAAGCGCCAGAACUACAGAAAUGUAGUUGACGAGGAGGAGGUUUAUCGAAUUUUCAGCGGAUGCCGCCAAA [G59A U69G], the “self-cleavage kobs at 10000 uM GlcN6P” value turned out to be 1.32e-05 ± 9.9e-06 s⁻¹.
With AUAAAAGCGCCAGAACUACAGAAAUGUAGUUGACGAGGAGGAGGUUUAUCGAAUUGUAGGCGGAUGCCUCAAAA [U56G C58A C71A], the “self-cleavage kobs at 10000 uM GlcN6P” value stood at 3.2e-05 ± 1.8e-05 s⁻¹.
Still for that read-out and setting: with AUAAAAGCGCCAGAACUACAGAAAUGUAGUUGACGACGAGGAGGUUUAUGGAAGUUUCGGCGUUUGCCUCCAAA [G37C C50G U54G G63U A64U] the figure was 3.82e-05 ± 2e-05 s⁻¹.
